From article PMC10201364 (MicrobiologyOpen, 2023)
The exact form of at least one protein or probe is not confirmed. At least one verdict rests on a figure or table, not on a statement of the authors. Tags and fusion partners may be left off the protein sequences shown.

System: T1, Ah-BarR WT (Acidianus hospitalis)
T1 sequence (looked up, limits assumed): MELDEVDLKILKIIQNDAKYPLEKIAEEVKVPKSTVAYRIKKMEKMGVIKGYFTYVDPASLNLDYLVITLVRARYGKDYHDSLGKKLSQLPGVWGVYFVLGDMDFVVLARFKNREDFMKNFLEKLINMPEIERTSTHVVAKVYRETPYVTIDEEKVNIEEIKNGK
Test: EMSA
Conditions: 20 mM Tris-HCl pH 8.0, 50 mM NaCl, 0.4 mM EDTA, 0.1 mM DTT, 1 mM MgCl2, 12.5% glycerol, 25 ug/mL salmon sperm DNA, 25 min at 37 C (EMSA), recombinant protein, protein details: C-terminal His, label: 32P 5' end (bottom strand in footprinting), probe letters rebuilt from the primers and the genome

## CCTTATACATTTTATCGACGAATAAGTTGAATATACAACTAAATAAAAAGGGATTATCTTGGAAATTATACAGAGACATTCCAAAGCAAGATTTAAACTATTGTACTTTTTACAATAGCTGTCCTAAAATACTTAAATTCCGTCTAAACTACTAGTATCGCATGGATG (double strand) [WT promoter short 168 bp]
5 mM beta-alanine, complexes unstable during electrophoresis
  binding result: binds
No beta-alanine
  binding result: binds
